From PMC10437088

Protein sequences, listed by entry. Tags and fused reporters are not part of them. Lines headed by an entry give the natural chain unless they say otherwise; changes in a name come on top.
UniProt Q6NZQ0: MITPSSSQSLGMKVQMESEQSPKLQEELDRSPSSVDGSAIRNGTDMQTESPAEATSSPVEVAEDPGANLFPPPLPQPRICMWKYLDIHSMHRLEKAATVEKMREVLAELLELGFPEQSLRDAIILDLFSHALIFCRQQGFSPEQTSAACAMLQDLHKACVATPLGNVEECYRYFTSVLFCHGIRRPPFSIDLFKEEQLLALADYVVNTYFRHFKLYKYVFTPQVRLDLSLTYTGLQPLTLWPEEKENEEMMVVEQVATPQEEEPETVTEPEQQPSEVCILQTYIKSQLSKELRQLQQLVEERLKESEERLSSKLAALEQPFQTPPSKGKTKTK

B1: IFT88 protein in the testes of Ccdc189-EGFP mice (protein, UniProt Q61371 1-824)
chain: MENVHLAPETDEDDLYSGFNDYNPAYDTEELENDTGFQQAVRTSHGRRPPVTAKIPSTAVSRPIATGYGSKTSLTSSMGRPMTGTIQDGVARPMTAVRAAGFSKAALRGSAFDPLGQSRGPAPPLEAKNEDSPEEKIRQLEKKVNELVEESCIANSCGDLKLALEKAKDAGRKERVLVRQREQVTSPENINLDLTYSVLFNLASQYSANEMYAEALNTYQVIVKNKMFSNAGRLKVNMGNIYLKQRNYSKAIKFYRMALDQIPSVHKEMRIKIMQNIGITFIKTGQYSDAINSFEHIMSMAPSLKAGFNLILSCFAIGDREKMKKAFQKLIAVPLEIDEDDKYISPSDDPHTNLLIEAIKNDHLRQMERERKAMAEKYIMTAAKLIAPVIEASFAVGYNWCVEVVKASQYVELANDLEINKAITYLRQKDFNQAVDTLKMFEKKDSRVKSAAATNLSFLYYLENEFAQASSYADLAVNSDRYNPSALTNKGNTVFANGDYEKAAEFYKEALRNDSSCTEALYNIGLTYKKLNRLDEALDSFLKLHAILRNSAQVLCQIANIYELMEDPNQAIEWLMQLISVVPTDSQALSKLGELYDSEGDKSQAFQYYYESYRYFPSNIEVIEWLGAYYIDTQFCEKAIQYFERASLIQPTQVKWQLMVASCFRRSGNYQKALDTYKEIHRKFPENVECLRFLVRLCTDIGLKEVQEYATKLKRLEKMKEMREQRIKSGRDSSGGSRSKREGSAGSDSGQNNSASSKSERLSAKLRALPGTDEPYESSGNKEIDASYVDPLGPQIERPKTAAKKRIDEDDFADEELGDDLLPE
B2: CABCOCO1 protein in the testes of Ccdc189-EGFP mice (protein, UniProt Q8CDT7 1-208)
chain: MNFSIEQYSKFMTLLDMLLHNLQTLHMSLEDSIKWLGEVMAEIGPNHSQKSEDFHVFEVKEANAIIDYLKISLFQHYRLYEFLFYSTREEIVIGTEQTIEVVKPADYPFPAPLEEGISLDTYSTFIEPLPTPDMEQKVLDQEQGTQEALLESEMREEDPLGGFTIDDVKSALERVTDEVLISMQKEISEKLQVQEEAFNARIEKLKKA

What was measured:
[1] = target: T1, FLAG-tagged Cabcoco1 overexpressed in HEK293 cells (mouse) (UniProt Q8CDT7); assay: co-IP; proteins (FLAG-tagged Cabcoco1, EGFP-tagged Ccdc189 or truncated CCDC189 fragments) overexpressed in HEK293 cells
T1 sequence: B2 chain

[2] = target: CCDC189-EGFP (EGFP-tagged Ccdc189 knock-in allele), in mouse testes (mouse) (UniProt Q6NZQ0); assay: co-IP; anti-GFP antibody, testes of Ccdc189-EGFP mice, detection by blot

Molecule | binding [1] | binding [2]
Ccdc189D3 (with the coiled-coil domain deleted) (mouse) (domain or fragment) | no binding | 
B1 |  | binds
B2 |  | binds

Results are given in words; binding and its absence hold for the method and conditions named. In cells and extracts the contact can be indirect. For part of these data: Binding calls can cover weak binding; strength is not graded here. Sequences can lack the tags named with a protein.
